In PubChem BioAssay AID651640 (Broad Institute, 2012):
Screen size: about 350,000 compounds; about 6,000 (1.7%) were called active. Inconclusive means that the source gave no clear call. Such entries were picked first, then a sample of the others. Cut-off read from the data, not from the text of the source: active = CPE inhibition above about 20% (passing the limit was not always enough); inconclusive = no clear call, values can overlap the other calls; tested in BHK-21 cells. A structure can be active in one record and inactive in another.

Test: protection of cells from dengue 2 killing – plate reader, single concentration, primary screen (AID 651640);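 note: 0% = median of neutral control wells and 100% = median of positive control wells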
Conditions: DENV2-infected cells, cytopathic effect rescue, at 9.99 µM, active compounds read high
In the case of `CCc1nc2cc3sc(CC)nc3cc2s1`, the CPE inhibition is reported as inconclusive: 36.5%.
For `Cc1ccc(Nc2c(-c3ccco3)nc3ccccn23)cc1`, the CPE inhibition was active: 75.2%.
In the case of `COc1ccc(NC(=O)N2CC(=O)N3[C@H](CO)[C@@H](c4ccc(/C=C/c5ccccc5)cc4)[C@@H]3C2)cc1`, the CPE inhibition is reported as inconclusive: 46.1%.
In the case of `Cc1ccc(C)c(C(=O)CN2C(=O)NC3(CCCCCC3)C2=O)c1`, the CPE inhibition is reported as inconclusive: 36%.
In the case of `COc1ccc(S(=O)(=O)N(C)C[C@H]2Oc3ccc(NC(=O)C4CCCCC4)cc3CC(=O)N([C@@H](C)CO)C[C@H]2C)cc1`, the CPE inhibition is reported as inconclusive: 21.5%.
With `C[C@H](CO)N1C[C@H](C)[C@@H](CN(C)C(=O)Nc2cccc3ccccc23)Oc2ccc(NC(=O)CCN3CCOCC3)cc2C1=O` the CPE inhibition was inactive: -1.66%.
In the case of `CCOC(=O)c1ccc(NC(=O)c2nc[nH]c2C(=O)N(C)Cc2ccccc2)cc1`, the CPE inhibition is reported as inconclusive: 66.7%.
With `COCCCN1C(=O)C(CC(=O)NCCCN(C)C)CC(C(=O)N2CCOCC2)=C1C` (stereo not drawn) the CPE inhibition was inconclusive: 34.9%.
With `COc1ccc(NC(=O)N2CC(=O)N3[C@@H](CO)[C@H](c4ccc(C#CCC5CCCC5)cc4)[C@@H]3C2)cc1` the CPE inhibition was active: 22.6%.
With `CC(=O)NCCC(=O)N(Cc1ccccc1)c1nc2c(C)cccc2s1` the CPE inhibition was inconclusive: 41.1%.
For `O=C1NC(c2ccccc2)=NC1(Nc1ccccn1)C(F)(F)F` (stereo not drawn), the CPE inhibition was inconclusive: 24.6%.
For `COc1cc(/C=C/C(C)=NNc2ccccc2)ccc1O`, the CPE inhibition was inconclusive: 20.1%.
In the case of `C[C@H]1CN([C@@H](C)CO)C(=O)c2cc(NC(=O)C3CC3)ccc2O[C@@H]1CN(C)C(=O)Nc1cccc2ccccc12`, the CPE inhibition is reported as inconclusive: 21.7%.
With `CC(OC(=O)c1ccc(S(=O)(=O)N(C)C)cc1)C(=O)Nc1ccc(Cl)cn1` (stereo not drawn) the CPE inhibition was inconclusive: 29.7%.
In the case of `CCOC(=O)c1c(SCCN2CCCCC2)n(-c2ccccc2)c(=S)n(-c2ccccc2)c1=O`, the CPE inhibition is reported as active: 22.5%.
In the case of `Cc1ccc(CN2CCCOCCS2(=O)=O)cc1`, the CPE inhibition is reported as active: 40.2%.
With `CCS(=O)(=O)N1[C@H](CO)[C@@H](c2ccc(C#Cc3ccccc3F)cc2)[C@@H]1C#N` the CPE inhibition was inconclusive: 22.3%.
With `CC(C)Oc1ccc(S(=O)(=O)N2CCOCC2)cc1NC(=O)c1cc([N+](=O)[O-])ccc1N1CCOCC1` the CPE inhibition was active: 72.1%.
In the case of `CSc1ncccc1C(=O)NCCc1ccc(Cl)cc1`, the CPE inhibition is reported as inconclusive: 30.3%.
With `C[C@@H]1CN([C@H](C)CO)C(=O)c2cc(NC(=O)Cn3cnnn3)ccc2O[C@@H]1CN(C)S(=O)(=O)c1ccccc1` the CPE inhibition was inactive: -5.95%.
In the case of `O=C(C1CCOCC1)N1CC[C@@H]2[C@@H](CO)Nc3ccc(Br)cc3[C@@H]21`, the CPE inhibition is reported as inconclusive: 83.4%.
In the case of `CCCNC(=O)N(C)C[C@H]1Oc2ncc(-c3ccncc3)cc2C(=O)N([C@@H](C)CO)C[C@@H]1C`, the CPE inhibition is reported as inactive: -6.12%.
With `COc1ccccc1NC(=O)N1CCCCN2[C@H](CO)[C@H](c3ccc(C#CC4CC4)cc3)[C@H]2C1` the CPE inhibition was inactive: -4.43%.
With `O=C(Nc1ccc(Nc2ccccc2)cc1)Nc1ccccc1Cl` the CPE inhibition was inconclusive: 32.9%.
In the case of `C[C@H]1CN([C@@H](C)CO)C(=O)c2cc(-c3ccccc3F)cnc2O[C@H]1CN(C)C(=O)C1CC1`, the CPE inhibition is reported as inactive: -4.31%.
With `COCC(=O)N1CCCCN2[C@@H](CO)[C@@H](c3ccc(C#Cc4cccnc4)cc3)[C@@H]2C1` the CPE inhibition was inactive: -4.97%.
With `Cc1c(N(C)C)c(=O)n(-c2ccccc2)n1C` the CPE inhibition was active: 51.1%.
With `Cc1ccc(C)c(Cn2nnc3c(=O)[nH]c(C4CCN(C(=O)c5ccco5)CC4)nc32)c1` the CPE inhibition was inconclusive: 40.3%.
In the case of `Cc1ccc2nc(-c3cccc(Cl)c3)c(Cc3ccccc3)n2c1`, the CPE inhibition is reported as inconclusive: 71.2%.
With `C[C@@H]1CN([C@@H](C)CO)C(=O)c2cc(C3=CCCCC3)cnc2O[C@@H]1CN(C)Cc1ccc(C(=O)O)cc1` the CPE inhibition was inactive: -1.14%.
In the case of `CCC(CC)c1nnc(NC(=O)C2CC(=O)N(c3ccc4c(c3)OCCO4)C2)s1` (stereo not drawn), the CPE inhibition is reported as inconclusive: 31.8%.
For `CCC(=O)N1CC(=O)N2[C@H](CO)[C@H](c3ccc(C#CC4CCCC4)cc3)[C@H]2C1`, the CPE inhibition was inactive: -2.94%.
For `CCCn1c(SC(C)C(=O)NCC2CCCO2)nc2sc(CC)cc2c1=O` (stereo not drawn), the CPE inhibition was inconclusive: 26%.
For `CCCNC(=O)C[C@@H]1CC[C@H]2[C@@H](COC[C@@H](O)CN2Cc2cccc(F)c2)O1`, the CPE inhibition was inactive: 0.202%.
For `C/C=C/c1cnc2c(c1)C(=O)N([C@@H](C)CO)C[C@@H](C)[C@@H](CN(C)Cc1ccccc1)O2`, the CPE inhibition was inactive: -2.56%.
With `Cc1ccc(S(=O)(=O)N2C[C@H]3[C@H]4C(=O)N(c5ccccc5)C(=O)[C@H]4C[C@H](OC(=O)NC4CC4)[C@@]3(O)C2)cc1` the CPE inhibition was inconclusive: 46.1%.
For `O=C(N/N=C/c1cccn1-c1ccc([N+](=O)[O-])cc1)c1cccnc1`, the CPE inhibition was active: 116%.
For `O=C(NCC[C@H]1CC[C@@H](NS(=O)(=O)c2ccc(Oc3ccccc3)cc2)[C@@H](CO)O1)C1CC1`, the CPE inhibition was inactive: -1.33%.
With `CCCc1cc(=O)oc2c(C)c(OC3CCCCC3=O)ccc12` (stereo not drawn) the CPE inhibition was active: 25.6%.
For `CCOC(=O)C(C(=O)OCC)C(Nc1ccccc1)c1ccccc1` (stereo not drawn), the CPE inhibition was inactive: -2.86%.
For `CC(C)CNC(=O)C1(C)CCCCCN1Cc1ccccc1-c1ccccc1` (stereo not drawn), the CPE inhibition was inconclusive: 38.7%.
With `CCOc1cc(C(=O)Nc2ccc([N+](=O)[O-])cn2)cc(OCC)c1OCC` the CPE inhibition was inconclusive: 24.5%.
For `C[C@@H]1CN([C@H](C)CO)C(=O)c2cccc(NC(=O)c3ccncc3)c2O[C@@H]1CN(C)S(=O)(=O)c1cccs1`, the CPE inhibition was active: 26.5%.
For `CCC(=O)Nc1c2c(nn1-c1cccc(Cl)c1)CSC2`, the CPE inhibition was inconclusive: 47.1%.
With `O=C(NC(=S)NC1CCS(=O)(=O)C1)c1ccccc1` (stereo not drawn) the CPE inhibition was inconclusive: 33.1%.
For `COCCNC(=O)c1c(N)[nH]c(C(=O)c2ccc(Br)cc2)c1-c1ccc(Br)cc1`, the CPE inhibition was active: 33.7%.
For `Cc1sc(N2CCN(S(=O)(=O)c3ccc4c(c3)NC(=O)CO4)CC2)nc1-c1ccccc1`, the CPE inhibition was inconclusive: 31.1%.
In the case of `C[C@@H]1CN([C@@H](C)CO)C(=O)Cc2cc(NS(=O)(=O)c3cn(C)cn3)ccc2O[C@H]1CN(C)Cc1ccccc1`, the CPE inhibition is reported as active: 25.3%.
With `C[C@H]1CN([C@@H](C)CO)S(=O)(=O)c2ccc(-c3cccc(C#N)c3)cc2O[C@@H]1CN(C)C(=O)C1CC1` the CPE inhibition was inconclusive: 28.7%.
In the case of `CCC(=O)N1[C@@H]2c3ccc(C4=CCCC4)c(=O)n3C[C@H]1[C@H](CO)[C@H]2C(=O)N[C@H](C)c1ccccc1`, the CPE inhibition is reported as inconclusive: 25.3%.
In the case of `COC(=O)c1ccc2nc(-c3cccc(Cl)c3)c(Cc3cccc(Cl)c3)n2c1`, the CPE inhibition is reported as inconclusive: 70.4%.
In the case of `CCOC(=O)c1c(N)c2cc([N+](=O)[O-])cnc2n1C`, the CPE inhibition is reported as inactive: 3.21%.
In the case of `O=C(C[C@@H]1CC[C@H]2[C@@H](COC[C@@H](O)CN2Cc2cccc(-c3ccncc3)c2)O1)N1CCCCC1`, the CPE inhibition is reported as active: 28.8%.
With `CCOc1ccccc1Nc1ncnc2c1cnn2-c1ccccc1` the CPE inhibition was inconclusive: 20.3%.
In the case of `C[C@H](CO)N1C[C@H](C)[C@@H](CN(C)C(=O)NC2CCCCC2)Oc2ccc(NC(=O)C3CC3)cc2C1=O`, the CPE inhibition is reported as active: 56.2%.
In the case of `Cc1ccc(C)c(NC(=O)C(c2ccccc2)N2CCOCC2)c1` (stereo not drawn), the CPE inhibition is reported as inconclusive: 30.9%.
For `CS(=O)(=O)N1CCc2cc(C(=O)N3CCN(c4ccccc4)CC3)ccc21`, the CPE inhibition was active: 23.1%.
In the case of `CCC(=O)N1[C@@H](CO)[C@@H]2c3ccccc3N(C(=O)NC(C)C)C[C@@H]21`, the CPE inhibition is reported as inconclusive: 49.2%.
In the case of `COc1ccc(NC(=O)Nc2ccc3c(c2)C(=O)N([C@@H](C)CO)C[C@H](C)[C@@H](CN(C)S(=O)(=O)c2ccc(F)cc2)OCCCC[C@@H](C)O3)cc1`, the CPE inhibition is reported as inactive: -3.89%.
For `Clc1cccc(Cl)c1/C=N/Nc1c(Cl)cncc1Cl`, the CPE inhibition was inactive: -3.89%.
In the case of `Cc1noc(C)c1C(=O)Nc1nc2ccccc2s1`, the CPE inhibition is reported as inconclusive: 46.2%.
For `CC(C)(C)[S@](=O)N1Cc2cc(C(=O)NCCc3ccncc3)nc(-c3cccc(-c4cccnc4)c3)c2[C@@H]1CCO`, the CPE inhibition was inconclusive: 29.7%.
With `O=C(C[C@H]1CC[C@H](NC(=O)CCN2CCCCC2)[C@@H](CO)O1)NCc1ccc(Cl)c(Cl)c1` the CPE inhibition was inconclusive: 24%.
In the case of `Cc1noc(C)c1NC(=O)Nc1cccc2c1O[C@H](CN(C)Cc1ccc(C(=O)O)cc1)[C@H](C)CN([C@@H](C)CO)C2=O`, the CPE inhibition is reported as active: 26.3%.
In the case of `CCCN(CCC)C(=O)c1c(C)[nH]c(C(=O)OCC)c1C`, the CPE inhibition is reported as inconclusive: 82.5%.
For `C[C@H](CO)N1C[C@H](C)[C@H](CN(C)Cc2ccc(C(=O)Nc3ccccc3N)cc2)Oc2c(NC(=O)C3CCCCC3)cccc2C1=O`, the CPE inhibition was inconclusive: 25.4%.
For `CC(C)c1ccc(/C=N/NC(=O)c2cc(-c3cccc([N+](=O)[O-])c3)n[nH]2)cc1`, the CPE inhibition was active: 33.8%.
In the case of `CCCN(C)C[C@@H]1OCCCC[C@H](C)Oc2ccc(NC(=O)Cc3ccccc3)cc2C(=O)N([C@@H](C)CO)C[C@@H]1C`, the CPE inhibition is reported as active: 35.4%.
For `O=C(COC(=O)c1ccc([N+](=O)[O-])o1)NC12CC3CC(CC(C3)C1)C2`, the CPE inhibition was inconclusive: 21.6%.
For `CCOc1ccccc1CNc1ncnc2ccc(-c3c(C)noc3C)cc12`, the CPE inhibition was inconclusive: 33.3%.
With `COc1ccc(C#Cc2ccc([C@H]3[C@H](CO)N4CCCCN(C(=O)c5ccncc5)C[C@@H]34)cc2)cc1` the CPE inhibition was active: 47.4%.
With `CCCC(=O)N1CC2(C1)CN(C(C)=O)[C@@H](CO)c1c2c2ccc(OC)cc2n1C` the CPE inhibition was inconclusive: 43.2%.
For `O=C(C[C@H]1CC[C@@H]2[C@H](COC[C@H](O)CN2C(=O)c2ccccc2)O1)Nc1ccc(-c2ccccc2)cc1`, the CPE inhibition was active: 55.2%.
